Experimental data taken from article PMC6726739.
These are yes or no findings as the source states them, for the method shown. Binding can be weak; no strength is given. Where a sequence is shown, tags or fusion partners need not be part of it.

Target: AvrPto in pGBKT-7 (Pseudomonas syringae pv. tomato DC3000)
Experiment: two-hybrid; Matchmaker GAL4 Two-Hybrid System 3, yeast AH109; effectors and AvrPtoB forms in pGBKT-7 (BD), plant proteins in pGADT-7 (AD); growth on SD-Trp/-Leu/-His/-Ade, 5 days

B1: EXO70B1, full length, fused to the Gal4 transactivation domain (protein, UniProt Q9FGH9 1-624)
chain: MAENGEEKLLAVARHIAKTLGHNESMADDILQIFSNFDGRFSREKLAEGQAGEDGSGVATLERALNSIDGQISRFVAADQPIWADPADSAAFLDTIDELVAIIREWSPMASEKPIGICLTRADDMMQQAMFRIEEEFRSLMERGAESFGLNPQGDAGAMNHRFDSEEEEDDDRDFNNGDDIQIPVAQPLTDYDLIIDALPSATINDLHEMAKRMLGAGFGKACSHVYSSCRREFLEESMSRLGLQKLSIEEVHKMPWQELEDEIDRWIKAANVALRILFPSERRLCDRVFFGFSSAADLSFMEVCRGSTIQLLNFADAIAIGSRSPERLFKVLDVFETMRDLMPEFESVFSDQFCSVLRNEAVTIWKRLGEAIRGIFMELENLIRRDPAKAAVPGGGLHPITRYVMNYLRAACRSRQTLEQVFEESNGVPSKDSTLLTVQMSWIMELLESNLEVKSKVYKDPALCYVFLMNNGRYIVQKVKDGDLGLLLGDDWIRKHNVKVKQYHMNYQRSSWNKMLGLLKVDNTAAGMNGLGKTMKEKLKQFNIQFDEICKVHSTWVVFDEQLKEELKISLARLLVPAYGSFIGRFQNLGDIGKNADKYIKYGVEDIEARINELFKGTTTGRK
  binding: binds
